{"sequences": {"note": "Sequences of proteins named here, by UniProt entry; tags and fusion partners are left off. A line that says so, or that is headed by a name, gives the form on record, which may keep a tag or linker.", "UniProt P22303, other isoform, or with tags, fused parts or gaps": "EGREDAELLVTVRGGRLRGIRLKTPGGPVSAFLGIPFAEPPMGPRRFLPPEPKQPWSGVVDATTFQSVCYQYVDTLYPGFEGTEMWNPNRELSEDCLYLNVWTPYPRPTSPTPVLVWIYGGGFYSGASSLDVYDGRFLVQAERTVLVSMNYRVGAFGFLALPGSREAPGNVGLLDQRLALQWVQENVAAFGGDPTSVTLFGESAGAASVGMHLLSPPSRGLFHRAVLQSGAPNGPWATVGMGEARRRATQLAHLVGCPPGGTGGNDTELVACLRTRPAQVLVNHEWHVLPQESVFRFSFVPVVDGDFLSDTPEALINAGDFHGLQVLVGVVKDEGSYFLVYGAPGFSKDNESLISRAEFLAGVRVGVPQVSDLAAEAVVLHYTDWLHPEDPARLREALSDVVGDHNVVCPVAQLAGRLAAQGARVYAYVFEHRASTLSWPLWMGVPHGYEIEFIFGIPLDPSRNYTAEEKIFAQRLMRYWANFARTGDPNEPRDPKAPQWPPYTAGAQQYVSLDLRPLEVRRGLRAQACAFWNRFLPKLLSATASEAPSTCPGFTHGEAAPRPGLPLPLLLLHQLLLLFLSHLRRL"}, "source": "patent US5707559A", "about": "“Chemiluminescent 1,2-dioxetane compounds” (priority 1987, dated 1998)", "target": "T1, Acetylcholinesterase from human erythrocytes (Homo sapiens, UniProt P22303)", "T1 construct": "purchased Sigma Chemical Co. C-3389; host or cells: human erythrocytes", "assay": "Enzymatic triggering of chemiluminescence with acetylcholinesterase", "format": "biochemical", "settings": "reaction of 2e with acetylcholinesterase", "description": "Acetylcholinesterase, an enzyme of considerable biological significance, hydrolyzes acetylcholine to choline and acetic acid under physiological conditions. It was of interest to determine whether this enzyme would also initiate the chemiluminescent decomposition of the acetyl-protected dioxetane 2e by removal of the acetyl group. Acetylcholinesterase (C-3389) from human erythrocytes was purchased from Sigma Chemical Co. as a lyophilized powder containing phosphate buffer salts. […]. Addition of more dioxetane during this period generated more light.", "note": "For at least one compound, name, drawing or mass did not settle the structure."}
{"smiles": "CC(=O)OCC[N+](C)(C)C", "note": "[acetylcholine, reference compound]", "values": [{"measurement": "effect of native substrate on the enzymatic chemiluminescent reaction", "result": "reversibly inhibited"}]}
